PubChem BioAssay AID1259308 – NCATS – 2017

Aim: 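Genes whose loss raises luciferase production in HEK293 cells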 (primary screen)
System: human HEK293 embryonic kidney cells stably expressing firefly luciferase (HEK-CMV-Luc2-Hygro)
Reagent: single siRNA against human genes, 0.8 pmol siRNA per well
Duration: 72 h
Measurement: 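Luciferase light (ONE-Glo) measured on one replicate plate set and viability (CellTiter-Glo) on the other, scaled to a negative control siRNA, with robust z-scores and luciferase per cell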
Scale: total luciferase, z-score: higher = more reporter protein produced
Active means: 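Active when the median/MAD z-score for overall luciferase is greater than 3; a gene was taken forward for validation with new siRNAs if at least two of its three siRNAs passed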
Meaning of the calls: active = raised luciferase; inactive = no rise
This is one part, drawn at random, of about 59,000 deposited reagents. About 1,510 of all reagents (2.6%) were called active. 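Calls use total luciferase alone and ignore viability, so some active siRNAs may act by altering cell number.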 The numbers tell different reagents against one gene apart. Not all columns of the deposit are shown.

RABGAP1L (GeneID 9910) #1: total luciferase, z-score = 1.28; Outcome = inactive
RABGAP1L (GeneID 9910) #2: total luciferase, z-score = 2.03; Outcome = inactive
RABGAP1L (GeneID 9910) #3: total luciferase, z-score = 2.51; Outcome = inactive
LINC01551 (GeneID 387978) #1: total luciferase, z-score = 0.579; Outcome = inactive
LINC01551 (GeneID 387978) #2: total luciferase, z-score = 0.27; Outcome = inactive
LINC01551 (GeneID 387978) #3: total luciferase, z-score = -0.511; Outcome = inactive
ATF7IP (GeneID 55729) #1: total luciferase, z-score = 2.59; Outcome = inactive
ATF7IP (GeneID 55729) #2: total luciferase, z-score = 2.33; Outcome = inactive
ATF7IP (GeneID 55729) #3: total luciferase, z-score = 0.772; Outcome = inactive
PCDH9 (GeneID 5101) #1: total luciferase, z-score = -0.413; Outcome = inactive
PCDH9 (GeneID 5101) #2: total luciferase, z-score = -1.14; Outcome = inactive
PCDH9 (GeneID 5101) #3: total luciferase, z-score = -0.479; Outcome = inactive
OPN3 (GeneID 23596) #1: total luciferase, z-score = 2; Outcome = inactive
OPN3 (GeneID 23596) #2: total luciferase, z-score = 0.243; Outcome = inactive
OPN3 (GeneID 23596) #3: total luciferase, z-score = 0.803; Outcome = inactive
MUSK (GeneID 4593) #1: total luciferase, z-score = 1.49; Outcome = inactive
MUSK (GeneID 4593) #2: total luciferase, z-score = -0.118; Outcome = inactive
MUSK (GeneID 4593) #3: total luciferase, z-score = 0.132; Outcome = inactive
MED30 (GeneID 90390) #1: total luciferase, z-score = -1.42; Outcome = inactive
MED30 (GeneID 90390) #2: total luciferase, z-score = -0.728; Outcome = inactive
MED30 (GeneID 90390) #3: total luciferase, z-score = -1.42; Outcome = inactive
CA6 (GeneID 765) #1: total luciferase, z-score = -0.811; Outcome = inactive
CA6 (GeneID 765) #2: total luciferase, z-score = 0.978; Outcome = inactive
CA6 (GeneID 765) #3: total luciferase, z-score = 0.37; Outcome = inactive
LINC00999 (GeneID 399744) #1: total luciferase, z-score = 0.352; Outcome = inactive
LINC00999 (GeneID 399744) #2: total luciferase, z-score = 2.89; Outcome = inactive
LINC00999 (GeneID 399744) #3: total luciferase, z-score = -0.622; Outcome = inactive
SOCS1 (GeneID 8651) #1: total luciferase, z-score = 0.563; Outcome = inactive
SOCS1 (GeneID 8651) #2: total luciferase, z-score = -1.55; Outcome = inactive
SOCS1 (GeneID 8651) #3: total luciferase, z-score = -1.07; Outcome = inactive
CDV3 (GeneID 55573) #1: total luciferase, z-score = 2.92; Outcome = inactive
CDV3 (GeneID 55573) #2: total luciferase, z-score = 0.135; Outcome = inactive
CDV3 (GeneID 55573) #3: total luciferase, z-score = -1.58; Outcome = inactive

In a second layout: results already given
Target gene | siRNA no. | total luciferase, z-score | Outcome
ATF7IP (GeneID 55729) | 3 | 0.772 | inactive
PCDH9 (GeneID 5101) | 1 | -0.413 | inactive
